Assay results from the supplement of paper PMC7666118.
The list shows a part of the results.

Amino acid sequences for entries named in this document (tags omitted). A change or cut given only in a name is not applied to a line headed by its entry.
UniProt O43765: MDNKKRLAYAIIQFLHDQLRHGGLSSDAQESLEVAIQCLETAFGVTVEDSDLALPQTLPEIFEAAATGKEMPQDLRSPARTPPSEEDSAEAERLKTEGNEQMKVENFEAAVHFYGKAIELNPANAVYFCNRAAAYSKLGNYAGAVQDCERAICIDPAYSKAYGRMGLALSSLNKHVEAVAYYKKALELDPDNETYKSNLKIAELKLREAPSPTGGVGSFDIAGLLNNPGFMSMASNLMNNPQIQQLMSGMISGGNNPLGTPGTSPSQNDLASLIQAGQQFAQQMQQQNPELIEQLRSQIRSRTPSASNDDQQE
UniProt Q15637: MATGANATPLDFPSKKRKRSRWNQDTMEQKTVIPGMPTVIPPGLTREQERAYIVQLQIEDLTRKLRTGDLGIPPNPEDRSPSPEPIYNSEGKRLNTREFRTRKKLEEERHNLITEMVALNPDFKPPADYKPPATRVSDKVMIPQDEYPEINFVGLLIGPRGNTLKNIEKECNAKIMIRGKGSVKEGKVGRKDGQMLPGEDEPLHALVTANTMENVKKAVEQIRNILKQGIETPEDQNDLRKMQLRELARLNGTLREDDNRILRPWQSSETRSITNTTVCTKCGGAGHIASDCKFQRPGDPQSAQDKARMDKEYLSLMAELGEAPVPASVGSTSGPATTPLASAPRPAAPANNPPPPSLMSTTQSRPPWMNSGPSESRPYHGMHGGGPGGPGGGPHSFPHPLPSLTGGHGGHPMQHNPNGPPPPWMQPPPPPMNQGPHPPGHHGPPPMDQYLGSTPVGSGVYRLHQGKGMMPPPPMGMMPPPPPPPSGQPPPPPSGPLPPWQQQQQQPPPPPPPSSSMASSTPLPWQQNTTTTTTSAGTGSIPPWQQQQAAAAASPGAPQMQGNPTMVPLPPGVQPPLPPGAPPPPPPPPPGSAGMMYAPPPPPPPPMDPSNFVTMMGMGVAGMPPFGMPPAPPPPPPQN
UniProt O60613, whole entry: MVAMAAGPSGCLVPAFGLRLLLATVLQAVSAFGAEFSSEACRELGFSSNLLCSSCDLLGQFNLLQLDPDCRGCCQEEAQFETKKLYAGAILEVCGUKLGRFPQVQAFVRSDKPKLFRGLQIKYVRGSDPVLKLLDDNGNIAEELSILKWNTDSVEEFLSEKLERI
UniProt P48595: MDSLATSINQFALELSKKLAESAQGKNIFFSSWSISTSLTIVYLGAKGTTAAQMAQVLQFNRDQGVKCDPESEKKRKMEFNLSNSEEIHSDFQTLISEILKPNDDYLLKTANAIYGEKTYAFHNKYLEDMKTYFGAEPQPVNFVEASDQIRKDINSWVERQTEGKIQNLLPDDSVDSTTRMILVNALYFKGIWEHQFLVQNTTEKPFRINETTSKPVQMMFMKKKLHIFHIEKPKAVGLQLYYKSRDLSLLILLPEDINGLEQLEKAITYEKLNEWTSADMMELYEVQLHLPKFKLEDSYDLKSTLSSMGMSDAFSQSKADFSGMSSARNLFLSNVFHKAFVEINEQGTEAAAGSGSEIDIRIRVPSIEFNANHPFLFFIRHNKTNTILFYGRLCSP
UniProt O75880: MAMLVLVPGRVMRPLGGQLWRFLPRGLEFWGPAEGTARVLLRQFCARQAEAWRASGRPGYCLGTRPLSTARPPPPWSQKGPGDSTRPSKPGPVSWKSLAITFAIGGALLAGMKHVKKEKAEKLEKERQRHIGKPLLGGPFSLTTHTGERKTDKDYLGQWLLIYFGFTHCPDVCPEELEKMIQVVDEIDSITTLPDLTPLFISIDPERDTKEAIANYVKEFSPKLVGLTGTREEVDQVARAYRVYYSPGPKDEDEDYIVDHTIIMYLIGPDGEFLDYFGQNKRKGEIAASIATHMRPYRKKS
UniProt Q16629: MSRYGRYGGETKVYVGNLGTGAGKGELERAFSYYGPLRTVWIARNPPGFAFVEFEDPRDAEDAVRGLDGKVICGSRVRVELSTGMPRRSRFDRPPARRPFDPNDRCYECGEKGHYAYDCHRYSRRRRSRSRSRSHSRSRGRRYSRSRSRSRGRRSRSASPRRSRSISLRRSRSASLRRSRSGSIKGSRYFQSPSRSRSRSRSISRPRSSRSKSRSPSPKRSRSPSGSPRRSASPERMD
UniProt Q15020: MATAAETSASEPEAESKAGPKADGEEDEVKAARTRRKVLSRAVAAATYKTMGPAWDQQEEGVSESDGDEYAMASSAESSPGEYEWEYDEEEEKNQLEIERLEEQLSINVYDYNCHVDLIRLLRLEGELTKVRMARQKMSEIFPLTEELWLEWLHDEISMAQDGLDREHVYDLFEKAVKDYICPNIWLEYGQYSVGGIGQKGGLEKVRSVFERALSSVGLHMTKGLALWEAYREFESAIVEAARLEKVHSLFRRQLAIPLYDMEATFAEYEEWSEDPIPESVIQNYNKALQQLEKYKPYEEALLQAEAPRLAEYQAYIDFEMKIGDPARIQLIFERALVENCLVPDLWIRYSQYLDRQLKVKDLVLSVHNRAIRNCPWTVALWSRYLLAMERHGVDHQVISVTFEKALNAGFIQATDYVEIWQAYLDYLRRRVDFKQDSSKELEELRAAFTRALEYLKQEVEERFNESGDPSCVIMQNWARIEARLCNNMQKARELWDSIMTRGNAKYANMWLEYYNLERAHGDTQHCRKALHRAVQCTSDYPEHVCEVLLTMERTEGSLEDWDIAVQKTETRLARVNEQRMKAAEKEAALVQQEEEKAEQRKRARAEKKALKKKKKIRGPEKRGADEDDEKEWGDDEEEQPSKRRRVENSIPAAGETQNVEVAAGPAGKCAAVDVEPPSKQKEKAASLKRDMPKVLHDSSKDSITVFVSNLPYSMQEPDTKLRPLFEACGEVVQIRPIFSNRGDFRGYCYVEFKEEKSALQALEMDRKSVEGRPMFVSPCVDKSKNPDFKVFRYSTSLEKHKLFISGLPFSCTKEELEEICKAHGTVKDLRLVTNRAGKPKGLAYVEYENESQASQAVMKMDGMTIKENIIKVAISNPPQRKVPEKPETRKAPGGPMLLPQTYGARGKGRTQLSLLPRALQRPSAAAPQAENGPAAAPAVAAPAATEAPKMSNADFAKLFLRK
UniProt P78324, whole entry: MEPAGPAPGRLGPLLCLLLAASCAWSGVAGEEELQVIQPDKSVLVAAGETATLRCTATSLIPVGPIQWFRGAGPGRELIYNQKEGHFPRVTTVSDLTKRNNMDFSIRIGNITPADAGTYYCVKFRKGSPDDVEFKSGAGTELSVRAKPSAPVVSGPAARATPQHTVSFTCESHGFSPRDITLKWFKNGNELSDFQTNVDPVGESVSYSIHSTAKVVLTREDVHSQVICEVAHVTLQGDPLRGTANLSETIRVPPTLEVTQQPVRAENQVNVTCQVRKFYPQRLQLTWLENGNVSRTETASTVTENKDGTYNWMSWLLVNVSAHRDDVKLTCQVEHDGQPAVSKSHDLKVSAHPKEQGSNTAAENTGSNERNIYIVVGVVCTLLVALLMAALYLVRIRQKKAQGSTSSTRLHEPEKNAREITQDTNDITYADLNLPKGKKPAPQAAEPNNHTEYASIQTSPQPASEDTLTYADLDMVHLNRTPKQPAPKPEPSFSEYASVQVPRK
UniProt Q9BRK5: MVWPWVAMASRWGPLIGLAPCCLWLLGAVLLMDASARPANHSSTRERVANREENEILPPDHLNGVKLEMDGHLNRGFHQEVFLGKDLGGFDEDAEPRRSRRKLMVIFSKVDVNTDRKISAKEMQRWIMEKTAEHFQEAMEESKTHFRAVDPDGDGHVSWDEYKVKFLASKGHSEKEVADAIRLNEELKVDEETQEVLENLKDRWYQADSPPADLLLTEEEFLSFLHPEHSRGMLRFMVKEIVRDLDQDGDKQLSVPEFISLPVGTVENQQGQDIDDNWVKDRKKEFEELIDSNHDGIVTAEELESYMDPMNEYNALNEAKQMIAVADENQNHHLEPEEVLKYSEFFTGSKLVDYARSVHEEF
UniProt O75368: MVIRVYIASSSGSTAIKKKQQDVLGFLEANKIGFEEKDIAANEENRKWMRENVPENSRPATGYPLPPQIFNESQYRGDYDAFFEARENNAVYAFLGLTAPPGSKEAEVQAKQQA
UniProt O43772: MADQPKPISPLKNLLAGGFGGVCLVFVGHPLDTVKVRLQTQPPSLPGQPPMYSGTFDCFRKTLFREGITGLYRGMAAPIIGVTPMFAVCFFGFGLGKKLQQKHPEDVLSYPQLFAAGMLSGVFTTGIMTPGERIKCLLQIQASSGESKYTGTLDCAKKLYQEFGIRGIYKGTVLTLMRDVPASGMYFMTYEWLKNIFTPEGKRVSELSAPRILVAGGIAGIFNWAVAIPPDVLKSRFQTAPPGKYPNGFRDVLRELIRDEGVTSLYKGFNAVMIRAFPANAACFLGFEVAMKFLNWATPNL
UniProt Q96GA7: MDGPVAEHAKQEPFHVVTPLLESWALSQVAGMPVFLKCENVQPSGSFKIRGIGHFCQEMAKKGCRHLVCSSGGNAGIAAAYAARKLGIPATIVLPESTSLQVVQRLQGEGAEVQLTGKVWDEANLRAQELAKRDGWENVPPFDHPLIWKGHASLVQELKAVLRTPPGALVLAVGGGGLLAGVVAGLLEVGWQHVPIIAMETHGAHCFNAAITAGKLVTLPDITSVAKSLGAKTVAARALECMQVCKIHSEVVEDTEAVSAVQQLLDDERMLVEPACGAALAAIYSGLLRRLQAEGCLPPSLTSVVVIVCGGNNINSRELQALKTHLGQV
UniProt Q9BQE4, whole entry: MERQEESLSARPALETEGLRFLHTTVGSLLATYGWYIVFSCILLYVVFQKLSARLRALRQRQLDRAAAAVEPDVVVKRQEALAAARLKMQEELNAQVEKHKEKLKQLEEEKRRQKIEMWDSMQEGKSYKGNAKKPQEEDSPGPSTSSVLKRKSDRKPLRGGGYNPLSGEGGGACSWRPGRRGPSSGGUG
UniProt Q8TF01: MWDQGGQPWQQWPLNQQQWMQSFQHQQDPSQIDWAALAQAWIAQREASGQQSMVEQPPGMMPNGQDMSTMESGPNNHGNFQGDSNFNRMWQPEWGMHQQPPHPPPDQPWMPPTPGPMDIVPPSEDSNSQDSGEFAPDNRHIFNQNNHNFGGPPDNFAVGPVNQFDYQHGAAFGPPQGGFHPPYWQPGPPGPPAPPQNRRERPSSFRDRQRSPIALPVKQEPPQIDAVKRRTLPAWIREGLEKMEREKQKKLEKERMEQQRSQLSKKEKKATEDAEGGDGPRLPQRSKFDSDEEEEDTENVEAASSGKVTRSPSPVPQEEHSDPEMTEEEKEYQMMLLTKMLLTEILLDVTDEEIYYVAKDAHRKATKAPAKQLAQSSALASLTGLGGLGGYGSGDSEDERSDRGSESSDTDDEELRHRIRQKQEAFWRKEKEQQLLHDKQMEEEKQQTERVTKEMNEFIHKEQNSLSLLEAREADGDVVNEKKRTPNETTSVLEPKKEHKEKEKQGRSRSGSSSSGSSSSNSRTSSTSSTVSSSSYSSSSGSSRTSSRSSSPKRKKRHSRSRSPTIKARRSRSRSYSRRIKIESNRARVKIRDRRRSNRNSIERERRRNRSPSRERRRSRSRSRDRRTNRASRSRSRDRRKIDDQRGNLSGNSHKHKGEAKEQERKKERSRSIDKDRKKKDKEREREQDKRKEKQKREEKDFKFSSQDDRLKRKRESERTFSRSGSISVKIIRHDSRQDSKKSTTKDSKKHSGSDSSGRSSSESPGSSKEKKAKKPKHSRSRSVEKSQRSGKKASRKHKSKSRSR
UniProt Q8TBK2: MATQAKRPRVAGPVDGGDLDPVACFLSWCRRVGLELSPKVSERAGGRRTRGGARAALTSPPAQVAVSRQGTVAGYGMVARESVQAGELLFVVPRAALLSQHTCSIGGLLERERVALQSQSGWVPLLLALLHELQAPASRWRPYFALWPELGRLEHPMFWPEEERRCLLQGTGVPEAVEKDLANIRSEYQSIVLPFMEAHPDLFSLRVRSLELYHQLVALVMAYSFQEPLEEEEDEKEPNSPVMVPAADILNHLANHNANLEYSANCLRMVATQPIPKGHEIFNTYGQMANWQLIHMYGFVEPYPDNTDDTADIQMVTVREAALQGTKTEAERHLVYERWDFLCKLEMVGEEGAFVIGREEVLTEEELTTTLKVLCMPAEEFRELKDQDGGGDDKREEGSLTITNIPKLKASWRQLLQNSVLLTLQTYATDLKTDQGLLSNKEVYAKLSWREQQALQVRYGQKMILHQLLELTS
UniProt O43808: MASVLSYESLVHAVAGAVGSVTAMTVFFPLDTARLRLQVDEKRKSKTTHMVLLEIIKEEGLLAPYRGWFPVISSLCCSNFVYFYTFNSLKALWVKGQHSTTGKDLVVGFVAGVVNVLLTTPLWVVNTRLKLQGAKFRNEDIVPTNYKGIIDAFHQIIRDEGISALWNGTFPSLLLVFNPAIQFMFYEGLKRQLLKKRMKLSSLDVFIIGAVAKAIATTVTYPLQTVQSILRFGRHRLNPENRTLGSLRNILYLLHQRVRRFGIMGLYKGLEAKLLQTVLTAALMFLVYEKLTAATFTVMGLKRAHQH

compound: COc1ccc(Cn2ccc3ccc(C(=O)NO)cc32)cc1; test: dose-dependent thermal stabilisation call (2D-TPP, DLPTP, 10% FDR) (binary (1 = stabilised)); higher = stabilised by the compound; settings: system: HL-60 intact cells; concentration range 0.04-10 µM

Target	dose-dependent thermal stabilisation call
SCARB1 (UniProt Q8WTV0)	inactive: 0
SETDB1 (UniProt Q15047)	inactive: 0
SGTA (UniProt O43765)	inactive: 0
SLC29A1 (UniProt Q99808)	inactive: 0
SDHA (UniProt P31040)	inactive: 0
SFRS12 (UniProt Q8WXA9)	inactive: 0
SF1 (UniProt Q15637)	inactive: 0
SLC39A7 (UniProt Q92504)	inactive: 0
SEP15 (UniProt O60613)	inactive: 0
SLC7A2 (UniProt P52569)	inactive: 0
SLC25A32 (UniProt Q9H2D1)	inactive: 0
SLC25A30 (UniProt Q5SVS4)	inactive: 0
SLC30A6 (UniProt Q6NXT4)	inactive: 0
SERPINB10 (UniProt P48595)	inactive: 0
SCO1 (UniProt O75880)	inactive: 0
SFRS7 (UniProt Q16629)	inactive: 0
SCRIB	inactive: 0
SART3 (UniProt Q15020)	inactive: 0
SIRPA (UniProt P78324)	inactive: 0

As a working copy, part of the list above.
Target	dose-dependent thermal stabilisation call
SETDB1 (UniProt Q15047)	inactive: 0
SGTA (UniProt O43765)	inactive: 0
SLC29A1 (UniProt Q99808)	inactive: 0
SDHA (UniProt P31040)	inactive: 0
SFRS12 (UniProt Q8WXA9)	inactive: 0
SF1 (UniProt Q15637)	inactive: 0
SLC39A7 (UniProt Q92504)	inactive: 0
SEP15 (UniProt O60613)	inactive: 0

Additional results.

Target	dose-dependent thermal stabilisation call
SDF4 (UniProt Q9BRK5)	inactive: 0
SF3B1 (UniProt O75533)	inactive: 0
SH3BGRL (UniProt O75368)	inactive: 0
SFXN3 (UniProt Q9BWM7)	inactive: 0
SLC25A20 (UniProt O43772)	inactive: 0
SFRS16 (UniProt Q8N2M8)	inactive: 0
SCARB2 (UniProt Q14108)	inactive: 0
SDC1 (UniProt P18827)	inactive: 0
SLAIN2 (UniProt Q9P270)	inactive: 0
SLC43A1 (UniProt O75387)	inactive: 0
SDSL (UniProt Q96GA7)	inactive: 0
SCFD1 (UniProt Q8WVM8)	inactive: 0
SETD2 (UniProt Q9BYW2)	inactive: 0
SELS (UniProt Q9BQE4)	inactive: 0
SLC25A6 (UniProt P12236)	inactive: 0
SHMT1 (UniProt P34896)	inactive: 0
SFRS18 (UniProt Q8TF01)	inactive: 0
SETD6 (UniProt Q8TBK2)	inactive: 0
SLC25A17 (UniProt O43808)	inactive: 0
